Test results from patent US20110152225A1, “PPAR-Gamma Agonists for the Induction of Cationic Antimicrobial Peptide Expression as Immunoprotective Stimulants” (priority 2007, published 2011).
At least one compound was matched to its structure with a doubt left.

Legend:
HD-5 = HD-5 defensin gene expression in intestinal epithelial cells (Caco-2), quantitative PCR; type: cell-based, human; conditions: for activation of HD-5, as determined by quantitative PCR analysis: Caco-2 cells
Experimental: Cultured intestinal epithelial cell lines, namely Caco-2 (of human origin) and ICcl2 (of mice origin), were treated with the GSK-3 inhibitor LiCl ([…]) or the phosphatase inhibitor calyculin (50 nM) followed or not by stimulation with the PPAR-gamma agonist such as rosiglitazone (1 microM).
The expression of defensin and known target genes of both Wnt and PPAR-gamma signaling pathways were investigated by quantitative real-time PCR. The activation of GSK3, beta-catenin, NF-kappaB, ERK1/2, SAPK/JNK and p38 was measured by specific immunoblotting.

HD-6 = HD-6 defensin gene expression in intestinal epithelial cells, quantitative PCR; type: cell-based, human; conditions: incubation
Defb10 = Defb10 beta-defensin gene expression in intestinal epithelial cells, quantitative PCR; type: cell-based, mice; conditions: incubation
[1] = tested on: Crohn's disease associated Escherichia coli (LF82); test: Intracellular replication of Crohn's disease associated E. coli LF82 in Raw macrophage cell line; type: cell-based; conditions: PPAR-gamma activation
hBD1 = hBD1 defensin mRNA expression in colonic epithelial Caco-2 cells; type: cell-based, human; conditions: stimulated for 24 h
Text: 5-ASA was purchased at Sigma-Aldrich (St Quentin Fallavier, France). Rosiglitazone was synthesized in the laboratory according to standard procedures. The racemic compound 34 and the two enantiomers of the compound, 34-E1 and 34-E2 were provided by Giuliani SpA (Milano, Italy). Compound were re-suspended in DMEM medium (Gibco) and adjusted at pH=7 if necessary with 10N NaOH.
The colon carcinoma cell line Caco-2 (ATCC HTB-39) was routinely grown in DMEM supplemented respectively with 10% or 20% heat-FCS, and antibiotics. Cells were grown in monolayers, incubated at 37° C. in 5% CO2 and 95% relative humidity.
Cell were stimulated by 5-ASA, R34, 34-E1 and 34-E2 for 24 h. […] RNA quantification was performed using spectrophotometry. After treatment at 37° C. for 30 min with 20-50 units of RNase-free DNase I (Roche Diagnostics Corporation, Indianapolis, Ind., USA), oligo-dT primers (Roche Diagnostics Corporation, Indianapolis, USA) were used to synthesize single-stranded cDNA. mRNAs were quantified using SYBR green Master Mix (Applera, Courtaboeuf, France) with human specific oligonucleotides for hBD1(S:5′-[…]-3′; AS:5′-TTgTCTGAGATGGCCTCAggTggTAAC-3′) in a GeneAmp Abiprism 7000 (Applera, Courtaboeuf, France). […] SYBR green dye intensity was analyzed using the Abiprism 7000 SDS software (Applera, Courtaboeuf, France). […]

hBD-2 = conditions: literature reference 34; cited from earlier work

SMILES	activation of HD-5, as determined by quantitative PCR analysis (HD-5)	activation of HD-5, as determined by quantitative PCR analysis (HD-5; at 1 μM for 1, 3 or 6 hours)	expression of alpha-defensin HD-5 by intestinal epithelial cells (HD-5; incubation, intestinal epithelial cells)	expression of alpha-defensin HD-6 by intestinal epithelial cells (HD-6)	expression of beta-defensin Defb10 by intestinal epithelial cells (Defb10)	intracellular replication of LF82 [1]	expression of hBD1 (human defensin-1) (hBD1)	hBD-2 expression (hBD-2)
CN(CCOc1ccc(CC2SC(=O)NC2=O)cc1)c1ccccn1 (centres unmarked) [Rosiglitazone]	activates HD-5	activates HD-5	significantly increased	significantly increased	significantly increased	reduced	induce the expression of hBD1	–
C[C@@H]1C[C@H]2[C@@H]3CCC4=CC(=O)C=C[C@]4(C)[C@@]3(F)[C@@H](O)C[C@]2(C)[C@@]1(O)C(=O)CO [dexamethasone]	–	–	–	–	–	–	–	enhance
